{
  "source": "the supplement of paper PMC4604168 (melanoma cell lines)",
  "note": "The list shows a part of the results. Many values rest on one well or one pass, so single values are uncertain.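 Imaging used 1,536-well plates; nuclei positive for cleaved PARP by antibody were divided by total DNA-stained nuclei to yield the apoptosis fraction. Doses for screening kept most cells viable, and cell lines differ markedly in resting and induced cleaved-PARP levels.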",
  "data": [
    {"system": "WM1745", "experiment": "cleaved PARP positive nuclei fraction relative to DMSO control; melanoma cells; higher = more apoptosis", "details": "library dose: low library concentration; 72 h", "units": {"cleaved PARP positive nuclei fraction": "%"}, "values": [
      {"molecule": "CC(=O)c1c(C)c2cnc(Nc3ccc(N4CCNCC4)cn3)nc2n(C2CCCC2)c1=O", "note": "[palbociclib] + C[C@]1(c2nc3c(C(N)=O)cccc3[nH]2)CCCN1 [Veliparib] (first compound 0.04 µM, partner dose 1.4 µM)", "cleaved PARP positive nuclei fraction": 110},
      {"molecule": "C=CCNC1=C2C[C@@H](C)C[C@H](OC)[C@H](O)[C@@H](C)/C=C(\\C)[C@H](OC(N)=O)[C@@H](OC)/C=C\\C=C(/C)C(=O)NC(=CC1=O)C2=O", "note": "[Tanespimycin] + C#Cc1cccc(Nc2ncnc3cc(OCCOC)c(OCCOC)cc23)c1 [erlotinib] (first compound 0.002 µM, partner dose 0.8 µM)", "cleaved PARP positive nuclei fraction": 192},
      {"molecule": "C=CCNC1=C2C[C@@H](C)C[C@H](OC)[C@H](O)[C@@H](C)/C=C(\\C)[C@H](OC(N)=O)[C@@H](OC)/C=C\\C=C(/C)C(=O)NC(=CC1=O)C2=O", "note": "[Tanespimycin] + Clc1ccc(Nc2nnc(Cc3ccncc3)c3ccccc23)cc1 [vatalanib] (first compound 0.002 µM, partner dose 2 µM)", "cleaved PARP positive nuclei fraction": 124},
      {"molecule": "COCC[n+]1c2c(n(Cc3cnccn3)c1C)C(=O)c1ccccc1C2=O", "note": "+ Nc1cccc2c1CN(C1CCC(=O)NC1=O)C2=O [lenalidomide] (first compound 0.0004 µM, partner dose 1 µM)", "cleaved PARP positive nuclei fraction": 104},
      {"molecule": "C#Cc1cccc(Nc2ncnc3cc(OCCOC)c(OCCOC)cc23)c1", "note": "[erlotinib] + C[C@]1(c2nc3c(C(N)=O)cccc3[nH]2)CCCN1 [Veliparib] (first compound 0.8 µM, partner dose 1.4 µM)", "cleaved PARP positive nuclei fraction": 111},
      {"molecule": "CC(=O)c1c(C)c2cnc(Nc3ccc(N4CCNCC4)cn3)nc2n(C2CCCC2)c1=O", "note": "[palbociclib] + C#Cc1cccc(Nc2ncnc3cc(OCCOC)c(OCCOC)cc23)c1 [erlotinib] (first compound 0.04 µM, partner dose 0.8 µM)", "cleaved PARP positive nuclei fraction": 142},
      {"molecule": "Nc1cccc2c1CN(C1CCC(=O)NC1=O)C2=O", "note": "(stereo unspecified) [lenalidomide] + COc1cc(Nc2ncc(F)c(Nc3ccc4c(n3)NC(=O)C(C)(C)O4)n2)cc(OC)c1OC [Tamatinib] (first compound 1 µM, partner dose 0.4 µM)", "cleaved PARP positive nuclei fraction": 155},
      {"molecule": "C[C@]1(c2nc3c(C(N)=O)cccc3[nH]2)CCCN1", "note": "[Veliparib] + CC(C)(C)c1cnc(CSc2cnc(NC(=O)C3CCNCC3)s2)o1 [SNS-032] (first compound 1.4 µM, partner dose 0.01 µM)", "cleaved PARP positive nuclei fraction": 192},
      {"molecule": "Cc1nc(Nc2ncc(C(=O)Nc3c(C)cccc3Cl)s2)cc(N2CCN(CCO)CC2)n1", "note": "[dasatanib] + Nc1cccc2c1CN(C1CCC(=O)NC1=O)C2=O [lenalidomide] (first compound 0.004 µM, partner dose 1 µM)", "cleaved PARP positive nuclei fraction": 147},
      {"molecule": "CC(=O)c1c(C)c2cnc(Nc3ccc(N4CCNCC4)cn3)nc2n(C2CCCC2)c1=O", "note": "[palbociclib] + OCc1c[nH]c2ccccc12 [Indole-3-carbinol] (first compound 0.04 µM, partner dose 0.8 µM)", "cleaved PARP positive nuclei fraction": 101},
      {"molecule": "Clc1ccc(Nc2nnc(Cc3ccncc3)c3ccccc23)cc1", "note": "[vatalanib] + COCC[n+]1c2c(n(Cc3cnccn3)c1C)C(=O)c1ccccc1C2=O [YM155] (first compound 2 µM, partner dose 0.0004 µM)", "cleaved PARP positive nuclei fraction": 105},
      {"molecule": "CC1(C)NC(=O)N(c2ccc([N+](=O)[O-])c(C(F)(F)F)c2)C1=O", "note": "[nilutamide] + O=C(Nc1cccc(Cl)c1)Nc1ncc(CCNc2ncnc3ccsc23)s1 [SNS314] (first compound 1 µM, partner dose 0.0008 µM)", "cleaved PARP positive nuclei fraction": 104},
      {"molecule": "Nc1cccc2c1CN(C1CCC(=O)NC1=O)C2=O", "note": "(stereo unspecified) [lenalidomide] + C[C@]1(c2nc3c(C(N)=O)cccc3[nH]2)CCCN1 [Veliparib] (first compound 1 µM, partner dose 1.4 µM)", "cleaved PARP positive nuclei fraction": 104},
      {"molecule": "OCc1c[nH]c2ccccc12", "note": "[Indole-3-carbinol] + COc1ccc(Cl)c(Nc2nc3ccccc3nc2NS(=O)(=O)c2cccc(NC(=O)C(C)(C)N)c2)c1 [XL147] (first compound 0.8 µM, partner dose 0.8 µM)", "cleaved PARP positive nuclei fraction": 80.8},
      {"molecule": "CC(=O)c1c(C)c2cnc(Nc3ccc(N4CCNCC4)cn3)nc2n(C2CCCC2)c1=O", "note": "[palbociclib] + Clc1ccc(Nc2nnc(Cc3ccncc3)c3ccccc23)cc1 [vatalanib] (first compound 0.04 µM, partner dose 2 µM)", "cleaved PARP positive nuclei fraction": 134},
      {"molecule": "Cn1nnc2c(C(N)=O)ncn2c1=O", "note": "[temozolomide] + C[C@@H]1CCN(C(=O)CC#N)C[C@@H]1N(C)c1ncnc2[nH]ccc12 [CP690550] (first compound 2 µM, partner dose 1 µM)", "cleaved PARP positive nuclei fraction": 96.5},
      {"molecule": "Cc1nc(Nc2ncc(C(=O)Nc3c(C)cccc3Cl)s2)cc(N2CCN(CCO)CC2)n1", "note": "[dasatanib] + Cn1nnc2c(C(N)=O)ncn2c1=O [temozolomide] (first compound 0.004 µM, partner dose 2 µM)", "cleaved PARP positive nuclei fraction": 119},
      {"molecule": "OCc1c[nH]c2ccccc12", "note": "[Indole-3-carbinol] + COCC[n+]1c2c(n(Cc3cnccn3)c1C)C(=O)c1ccccc1C2=O [YM155] (first compound 0.8 µM, partner dose 0.0004 µM)", "cleaved PARP positive nuclei fraction": 94.7},
      {"molecule": "Clc1ccc(Nc2nnc(Cc3ccncc3)c3ccccc23)cc1", "note": "[vatalanib] + C=CCn1c(=O)c2cnc(Nc3ccc(N4CCN(C)CC4)cc3)nc2n1-c1cccc(C(C)(C)O)n1 [MK1775] (first compound 2 µM, partner dose 0.02 µM)", "cleaved PARP positive nuclei fraction": 117},
      {"molecule": "C#Cc1cccc(Nc2ncnc3cc(OCCOC)c(OCCOC)cc23)c1", "note": "[erlotinib] + COCC[n+]1c2c(n(Cc3cnccn3)c1C)C(=O)c1ccccc1C2=O [YM155] (first compound 0.8 µM, partner dose 0.0004 µM)", "cleaved PARP positive nuclei fraction": 120},
      {"molecule": "Cc1nc(Nc2ncc(C(=O)Nc3c(C)cccc3Cl)s2)cc(N2CCN(CCO)CC2)n1", "note": "[dasatanib] + Cn1c(Nc2ccc(C(F)(F)F)cc2)nc2cc(Oc3ccnc(-c4ncc(C(F)(F)F)[nH]4)c3)ccc21 [CHIR265] (first compound 0.004 µM, partner dose 0.08 µM)", "cleaved PARP positive nuclei fraction": 142},
      {"molecule": "CC(C)(C)c1cnc(CSc2cnc(NC(=O)C3CCNCC3)s2)o1", "note": "+ Cc1cc(N2CCOCC2)cc2[nH]c(-c3c(NC[C@@H](O)c4cccc(Cl)c4)cc[nH]c3=O)nc12 [BMS536924] (first compound 0.01 µM, partner dose 0.2 µM)", "cleaved PARP positive nuclei fraction": 125},
      {"molecule": "OCc1c[nH]c2ccccc12", "note": "[Indole-3-carbinol] + Nc1cccc2c1CN(C1CCC(=O)NC1=O)C2=O [lenalidomide] (first compound 0.8 µM, partner dose 1 µM)", "cleaved PARP positive nuclei fraction": 223},
      {"molecule": "Cn1c(Nc2ccc(C(F)(F)F)cc2)nc2cc(Oc3ccnc(-c4ncc(C(F)(F)F)[nH]4)c3)ccc21", "note": "+ Nc1cccc2c1CN(C1CCC(=O)NC1=O)C2=O [lenalidomide] (first compound 0.08 µM, partner dose 1 µM)", "cleaved PARP positive nuclei fraction": 136},
      {"molecule": "Clc1ccc(Nc2nnc(Cc3ccncc3)c3ccccc23)cc1", "note": "[vatalanib] + Cc1nc(Nc2ncc(C(=O)Nc3c(C)cccc3Cl)s2)cc(N2CCN(CCO)CC2)n1 [dasatanib] (first compound 2 µM, partner dose 0.004 µM)", "cleaved PARP positive nuclei fraction": 132},
      {"molecule": "OCc1c[nH]c2ccccc12", "note": "[Indole-3-carbinol] + O=S(=O)(c1ccccc1)N(CC(F)(F)F)c1ccc(C(O)(C(F)(F)F)C(F)(F)F)cc1 [T0901317] (first compound 0.8 µM, partner dose 1.4 µM)", "cleaved PARP positive nuclei fraction": 92},
      {"molecule": "C=CCNC1=C2C[C@@H](C)C[C@H](OC)[C@H](O)[C@@H](C)/C=C(\\C)[C@H](OC(N)=O)[C@@H](OC)/C=C\\C=C(/C)C(=O)NC(=CC1=O)C2=O", "note": "[Tanespimycin] + Nc1cccc2c1CN(C1CCC(=O)NC1=O)C2=O [lenalidomide] (first compound 0.002 µM, partner dose 1 µM)", "cleaved PARP positive nuclei fraction": 98.1},
      {"molecule": "C=CCNC1=C2C[C@@H](C)C[C@H](OC)[C@H](O)[C@@H](C)/C=C(\\C)[C@H](OC(N)=O)[C@@H](OC)/C=C\\C=C(/C)C(=O)NC(=CC1=O)C2=O", "note": "[Tanespimycin] + OCc1c[nH]c2ccccc12 [Indole-3-carbinol] (first compound 0.002 µM, partner dose 0.8 µM)", "cleaved PARP positive nuclei fraction": 108},
      {"molecule": "C=CCNC1=C2C[C@@H](C)C[C@H](OC)[C@H](O)[C@@H](C)/C=C(\\C)[C@H](OC(N)=O)[C@@H](OC)/C=C\\C=C(/C)C(=O)NC(=CC1=O)C2=O", "note": "[Tanespimycin] + CC(=O)c1c(C)c2cnc(Nc3ccc(N4CCNCC4)cn3)nc2n(C2CCCC2)c1=O [palbociclib] (first compound 0.002 µM, partner dose 0.04 µM)", "cleaved PARP positive nuclei fraction": 126},
      {"molecule": "C#Cc1cccc(Nc2ncnc3cc(OCCOC)c(OCCOC)cc23)c1", "note": "[erlotinib] + Cn1c(Nc2ccc(C(F)(F)F)cc2)nc2cc(Oc3ccnc(-c4ncc(C(F)(F)F)[nH]4)c3)ccc21 [CHIR265] (first compound 0.8 µM, partner dose 0.08 µM)", "cleaved PARP positive nuclei fraction": 123},
      {"molecule": "C#Cc1cccc(Nc2ncnc3cc(OCCOC)c(OCCOC)cc23)c1", "note": "[erlotinib] + Cn1nnc2c(C(N)=O)ncn2c1=O [temozolomide] (first compound 0.8 µM, partner dose 2 µM)", "cleaved PARP positive nuclei fraction": 97.3}
    ]}
  ]
}
